Results taken from article PMC10837360.
Changes are numbered by the printed parent chain. No constants are given. Whether binding was seen depends on the method and setting. For some of these results: Binding seen in cells or lysates may run through a third protein. Some entries that bind do so weakly or less than the wild type. For some of these results: Tags and fused reporters may be left off the sequences shown.

Chains of the proteins cited; added tags and fusions are not shown. Lines headed by an entry give the natural chain unless they say otherwise; changes in a name come on top.
UniProt O00425: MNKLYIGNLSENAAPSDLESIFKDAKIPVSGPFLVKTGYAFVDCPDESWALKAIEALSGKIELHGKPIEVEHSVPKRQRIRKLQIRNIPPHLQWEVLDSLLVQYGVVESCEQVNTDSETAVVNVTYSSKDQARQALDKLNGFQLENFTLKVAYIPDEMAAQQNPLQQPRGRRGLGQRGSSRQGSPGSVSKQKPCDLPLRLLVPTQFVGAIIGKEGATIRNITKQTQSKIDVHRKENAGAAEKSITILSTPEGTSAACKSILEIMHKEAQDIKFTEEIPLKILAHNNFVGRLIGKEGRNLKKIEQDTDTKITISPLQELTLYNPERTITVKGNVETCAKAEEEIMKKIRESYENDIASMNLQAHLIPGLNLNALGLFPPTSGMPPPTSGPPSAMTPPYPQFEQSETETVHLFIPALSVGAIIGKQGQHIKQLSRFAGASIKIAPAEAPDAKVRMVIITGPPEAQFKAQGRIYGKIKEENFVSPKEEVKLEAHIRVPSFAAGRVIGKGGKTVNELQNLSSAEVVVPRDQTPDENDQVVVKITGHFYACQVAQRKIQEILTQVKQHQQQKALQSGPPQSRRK
UniProt Q9Y6M1: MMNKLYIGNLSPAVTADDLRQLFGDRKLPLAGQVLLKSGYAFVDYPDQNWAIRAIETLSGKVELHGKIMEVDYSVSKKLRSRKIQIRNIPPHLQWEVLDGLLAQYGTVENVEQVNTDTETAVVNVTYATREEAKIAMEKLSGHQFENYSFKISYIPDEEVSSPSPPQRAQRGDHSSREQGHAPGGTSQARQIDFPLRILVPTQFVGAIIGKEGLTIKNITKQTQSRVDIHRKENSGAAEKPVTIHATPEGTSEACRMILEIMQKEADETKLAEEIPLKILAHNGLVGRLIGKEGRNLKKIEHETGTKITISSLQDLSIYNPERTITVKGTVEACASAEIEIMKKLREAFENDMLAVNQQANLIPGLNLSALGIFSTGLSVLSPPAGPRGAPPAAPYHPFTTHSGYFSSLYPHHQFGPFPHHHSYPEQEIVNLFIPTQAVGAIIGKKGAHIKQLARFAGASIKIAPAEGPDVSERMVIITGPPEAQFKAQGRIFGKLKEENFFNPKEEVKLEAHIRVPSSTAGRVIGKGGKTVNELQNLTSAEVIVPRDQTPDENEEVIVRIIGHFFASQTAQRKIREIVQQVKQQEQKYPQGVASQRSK

How the values were obtained:
[1] = target: T1, Flag-SLC27A5 (solute carrier family 27 member 5, 3xFlag-tagged) (human) (UniProt Q9Y2P5); assay: co-IP; PLC/PRF/5 cells transfected with Flag-SLC27A5 and Myc-IGF2BP3 or their truncated forms; IP with anti-Myc or anti-Flag, IgG as control; RIPA lysate, magnetic beads, overnight at 4 °C
T1 sequence: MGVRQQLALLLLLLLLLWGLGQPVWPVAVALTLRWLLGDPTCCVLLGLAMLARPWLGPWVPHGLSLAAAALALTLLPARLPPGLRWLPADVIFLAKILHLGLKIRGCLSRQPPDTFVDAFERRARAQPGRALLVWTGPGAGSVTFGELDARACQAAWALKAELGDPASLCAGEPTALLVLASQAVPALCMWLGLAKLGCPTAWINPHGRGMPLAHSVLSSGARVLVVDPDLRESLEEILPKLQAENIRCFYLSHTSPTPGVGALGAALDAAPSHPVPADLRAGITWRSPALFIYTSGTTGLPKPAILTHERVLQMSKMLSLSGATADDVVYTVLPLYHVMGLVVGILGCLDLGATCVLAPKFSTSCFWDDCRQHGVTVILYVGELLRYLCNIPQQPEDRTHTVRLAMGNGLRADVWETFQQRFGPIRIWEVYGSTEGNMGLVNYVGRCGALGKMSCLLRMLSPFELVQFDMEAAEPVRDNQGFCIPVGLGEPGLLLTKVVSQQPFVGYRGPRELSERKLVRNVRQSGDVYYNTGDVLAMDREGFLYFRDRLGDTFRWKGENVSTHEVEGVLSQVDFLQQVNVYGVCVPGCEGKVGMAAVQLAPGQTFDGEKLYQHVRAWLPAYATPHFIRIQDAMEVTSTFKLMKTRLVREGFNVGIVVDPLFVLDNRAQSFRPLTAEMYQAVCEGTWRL

[2] = target: T2, SLC27A5 ΔN (aa 78-690) (human) (UniProt Q9Y2P5); assay: as above
T2 sequence: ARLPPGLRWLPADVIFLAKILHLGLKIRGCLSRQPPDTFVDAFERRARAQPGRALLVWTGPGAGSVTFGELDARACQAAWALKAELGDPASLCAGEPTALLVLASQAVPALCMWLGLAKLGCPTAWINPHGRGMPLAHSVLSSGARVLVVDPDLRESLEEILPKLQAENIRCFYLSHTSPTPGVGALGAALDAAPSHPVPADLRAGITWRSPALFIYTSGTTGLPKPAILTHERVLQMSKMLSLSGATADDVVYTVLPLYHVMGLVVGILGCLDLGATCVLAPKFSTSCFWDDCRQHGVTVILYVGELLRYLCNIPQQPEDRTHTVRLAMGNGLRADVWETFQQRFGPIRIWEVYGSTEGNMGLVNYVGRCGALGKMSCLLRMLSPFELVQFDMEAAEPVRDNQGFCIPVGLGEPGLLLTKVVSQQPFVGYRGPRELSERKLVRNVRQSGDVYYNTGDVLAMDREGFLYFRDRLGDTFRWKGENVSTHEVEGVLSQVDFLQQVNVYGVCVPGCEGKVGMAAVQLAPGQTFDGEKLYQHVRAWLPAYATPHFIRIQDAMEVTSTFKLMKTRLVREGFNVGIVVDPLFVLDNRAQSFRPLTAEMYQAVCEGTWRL

[3] = target: T3, SLC27A5 in HepG2 cells (human (endogenous in HepG2)) (UniProt Q9Y2P5); assay: co-IP; IP and WB in HepG2 cells; RIPA lysate, magnetic beads, overnight at 4 °C
T3 sequence: T1 sequence

[4] = target: T4, GST-tagged SLC27A5 (human) (UniProt Q9Y2P5); assay: pull-down; GST pull-down: purified GST-SLC27A5 and 6xHis-IGF2BP3 incubated with glutathione agarose beads for 3 h; wash buffer 137 mM NaCl, 2.7 mM KCl, 10 mM Na2HPO4, 2 mM KH2PO4, 0.5% Triton X-100; immunoblot; both purified
T4 sequence: T1 sequence

[5] = target: T5, SLC27A5 (S296A), enzyme-inactivated mutant (human) (UniProt Q9Y2P5); assay: co-IP; IP analysis of the SLC27A5 S296A mutant (Figure S2B); cells not told
T5 sequence: T1 sequence with S296A

[6] = target: T6, SLC27A5 (co-IP with IGF2BP2, data not shown) (human) (UniProt Q9Y2P5); assay: co-IP; data not shown; cells and constructs not told
T6 sequence: T1 sequence

Substance: Myc-IGF2BP3 (insulin like growth factor 2 mRNA binding protein 3) (from UniProt O00425 1-579)
- binding [1]: binds
- binding [2]: binds

Substance: IGF2BP3 in HepG2 cells (from UniProt O00425 1-579)
- binding [3]: binds

Substance: IGF2BP3 KH1-2 (aa 195-344) (from UniProt O00425 195-344) (domain or fragment)
- binding [1]: binds

Substance: 6xHis-IGF2BP3 (from UniProt O00425 1-579)
- binding [4]: binds

Substance: IGF2BP3 (IP with SLC27A5 S296A, Figure S2B) (from UniProt O00425 1-579)
- binding [5]: binds

Substance: IGF2BP2 (co-IP with SLC27A5, data not shown) (from UniProt Q9Y6M1 1-599)
- binding [6]: binds weakly
